The whole screen tested about 330,000 compounds, of which about 7,700 (2.3%) were called active. Inconclusive results, whose numbers are uncertain, are shown with a selection of clear calls. Calls come from the whole dose curve; as a rule, active = well fitted inhibition curve with a large enough effect; inconclusive = small, poorly fitted or top-dose-only effect, or effect the other way; inactive = flat fitted curve, though single readings scatter. Where the call is inconclusive, the potency comes from a doubtful curve fit.
experiment: qHTS screen for small molecules that inhibit ELG1-dependent DNA repair in human embryonic kidney (HEK293T) cells expressing luciferase-tagged ELG1; details: HEK293T ELG1-luciferase reporter, luminescence, 16 h, DNA damage induced by 5-fluorouridine; activity change, negative = inhibition: at 46.1 µM (top of the series); note: nearly all actives have a fitted effect of over 55% in size
In short: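 DMSO vehicle served as the neutral condition. Each well held 2,000 cells given 5-fluorouridine plus compound; after 16 hr at 37 °C/5% CO2, ONE-Glo was added and luciferase measured 30 min later.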
% is set by controls: 0 for no effect and ±100 for the full control effect; potency is the fitted concentration of half-maximal effect.

Row | Structure (SMILES) | Potency | activity change, negative = inhibition
1 | Cc1ccc(NC(=S)N2CCC(c3nc4ccccc4s3)CC2)cc1 | inconclusive: 29.1 µM [inhibitor, single point] | –
2 | Cc1cc(C(=O)Cn2nc(C(=O)O)c3ccccc3c2=O)c(C)n1CCc1ccc(F)cc1 | inconclusive: 3.66 µM [inhibitor, single point] | –
3 | COCC1CCN(C(=O)CCc2nnc(C3(c4ccc(Cl)cc4)CCC3)o2)C1 (configuration not stated) | inconclusive: 14.6 µM [activator, partial curve] | –
4 | C/C(Cl)=C\Cn1c(N2CCCCCC2)nc2c1c(=O)n(C)c(=O)n2C | inconclusive: 16.4 µM [inhibitor, single point] | –
5 | O=C(Nc1ccc(N2CCOCC2)cc1)Nc1ccc2nc(-c3ccco3)c(-c3ccco3)nc2c1 | active: 6.51 µM | –
6 | CCCOc1ccc(C(=O)NNC(=S)NC(=O)c2ccccc2)cc1 | – | inactive: -16.5%
7 | Cc1ccc(-c2cc(C(=O)N3CCCCC3)c3ccccc3n2)cc1C | inconclusive: 23.1 µM [activator, partial curve] | –
8 | Cc1ccc(NC(=O)Nc2cnccn2)cc1C | inconclusive: 2.91 µM [activator, partial curve, poor fit] | –
9 | COc1cc(/C=N/Nc2nc3ccccc3s2)ccc1OC(=O)c1ccccc1F | inconclusive: 6.51 µM [activator, single point] | –
10 | CNC(=O)COc1ccc(Cl)c2cccnc12 | inconclusive: 16.4 µM [activator, single point] | –
11 | COc1ccc2c(c1)CC(C)C/C2=N\NC(=O)c1ccco1 (configuration not stated) | – | inactive: 6.57%
12 | O=C(Nc1ccc2c(c1)OCCO2)C(c1ccc(F)cc1)N1CCCCC1 (configuration not stated) | inconclusive: 23.1 µM [activator, partial curve, poor fit] | –
13 | c1ccc(NCc2nc(-c3ccccc3)no2)cc1 | inconclusive: 12.6 µM [activator, partial curve, poor fit] | –
14 | CC(C)=CCc1c2c(c3occ(-c4ccc(O)cc4)c(=O)c3c1O)C=CC(C)(C)O2 | – | inactive: -8.41%
15 | CCn1cnc2cc(NC(=O)c3cccs3)ccc21 | inconclusive: 18.3 µM [activator, partial curve] | –
16 | COCCNc1oc(-c2ccc(F)cc2)nc1C#N | inconclusive: 16.4 µM [activator, single point] | –
17 | COc1ccccc1P(=O)(Cc1ccccc1[N+](=O)[O-])c1ccccc1 (configuration not stated) | inconclusive: 5.8 µM [inhibitor, partial curve, poor fit] | –
18 | CC1CCN(c2ccc(-c3cccc(NC(=O)C(F)(F)F)c3)nn2)CC1 | inconclusive: 0.164 µM [activator, partial curve] | –
19 | COc1ccc(C(=O)c2sc(Nc3ccccc3)c(C(=O)Nc3ccc(OC)c(OC)c3)c2N)cc1 | inconclusive: 25.9 µM [inhibitor, single point] | –
20 | O=C(OCc1ccc(Cl)c(Cl)c1)c1ccccn1 | – | inactive: -4.66%
21 | COc1cc(/C=N/n2c(-c3ccccc3)n[nH]c2=S)ccc1O | inconclusive: 25.9 µM [activator, partial curve, poor fit] | –
22 | Cc1cc(Cl)c(S(=O)(=O)N2CCCCCC2)cc1OCC(=O)NC1CCCCC1 | active: 9.2 µM | –
23 | Cc1cc(C(=O)Nc2ccc(C)c(C)c2)n(-c2ccccc2)n1 | inconclusive: 10.3 µM [inhibitor, partial curve, poor fit] | –

Row | Structure (SMILES) | Potency | activity change, negative = inhibition
24 | CN(C(=O)COc1ccc(Br)cc1Cl)C1CCCCC1 | inconclusive: 20.6 µM [activator, single point] | –
25 | CC(=O)N(C)c1ccc(NC(=S)Nc2ccc(C(C)C)cc2)cc1 | inconclusive: 11.6 µM [inhibitor, partial curve, poor fit] | –
26 | CCc1nn(CC(=O)NCc2cccnc2)c(=O)c2cc3occc3n12 | inconclusive: 7.3 µM [activator, partial curve] | –
27 | Cc1ccc(CNC(=O)c2cccc3c2C(=O)c2ccc(N4CCCCC4)cc2S3(=O)=O)cc1 | inconclusive: 16.4 µM [inhibitor, single point] | –
28 | CC(=O)c1ccc(N2C(=NC(=O)COc3ccccc3)SC3CS(=O)(=O)CC32)cc1 (configuration not stated) | inconclusive: 23.1 µM [activator, partial curve, poor fit] | –
29 | Cc1ccc(-n2ncc3c(=O)n(CC(=O)N4CCCCCC4)cnc32)cc1 | inconclusive: 8.2 µM [activator, single point] | –
30 | O=C(Nc1cccc(Cl)c1)c1ccc(F)c(S(=O)(=O)NCc2ccc3c(c2)OCO3)c1 | inconclusive: 29.1 µM [inhibitor, single point] | –
31 | O=C(NCCc1cccs1)c1ccc(Cl)cc1 | inconclusive: 1.83 µM [activator, full curve] | –
32 | N#Cc1ccc(NC(=S)Nc2ccccc2)cc1 | – | inactive: -0.269%
33 | O=C(Nc1ccc(O)cc1)c1cc2ccccc2c(=O)s1 | inconclusive: 3.26 µM [activator, full curve] | –
34 | O=C1CCc2cc(S(=O)(=O)Nc3ccc(C(F)(F)F)cc3)cc3c2N1CC3 | inconclusive: 18.3 µM [activator, single point] | –
35 | O=C(OCC(=O)N1N=C(c2ccc(Cl)cc2)CC1c1ccco1)c1ccco1 (configuration not stated) | inconclusive: 29.1 µM [inhibitor, single point] | –
36 | NC(CC(=O)NC(c1ccccc1)(c1ccccc1)c1ccccc1)C(=O)O (configuration not stated) | inconclusive: 16.4 µM [activator, partial curve, poor fit] | –
37 | Cc1ccccc1NC(=O)c1cccc2nccnc12 | – | inactive: 5.82%
38 | Cc1cc(OCC(O)CN(CCO)CCO)ccc1Cl (configuration not stated) | inconclusive: 25.9 µM [activator, partial curve, poor fit] | –
39 | COCCn1c(N)c(C(=O)OCc2ccccc2)c2nc3ccccc3nc21 | inconclusive: 16.4 µM [inhibitor, partial curve, poor fit] | –
40 | CCC(=O)N1N=C(c2cccs2)CC1c1ccco1 (configuration not stated) | – | inactive: 0.278%
41 | Cn1c(CCNC(=O)c2ccco2)nc2cc(NS(=O)(=O)c3ccc(Cl)cc3)ccc21 | inconclusive: 25.9 µM [inhibitor, partial curve, poor fit] | –
42 | CC(C)COP(=O)(OCC(C)C)C(Nc1ccccc1)c1ccc2c(c1)OCO2 (configuration not stated) | inconclusive: 20.6 µM [inhibitor, single point] | –
43 | Cc1nonc1NC(=O)CSc1nc2ccccc2cc1C#N | inconclusive: 20.6 µM [inhibitor, single point] | –
44 | Nc1ccc2c(c1Cl)C(=O)c1ccc(N)c(Cl)c1C2=O | inconclusive: 11.6 µM [activator, partial curve] | –
45 | NC(=O)C1CCN(CC(=O)Nc2ccccc2Sc2ccccc2)CC1 | – | inactive: 6.33%
46 | CN(CC(=O)Nc1ccccc1Cl)C(=O)COC(=O)CSc1ccc(Cl)cc1 | – | inactive: 0%

Row | Structure (SMILES) | Potency | activity change, negative = inhibition
47 | O=C1[C@H]2[C@@H](c3ccc(F)cc3)N3C(=O)N(c4cccc(F)c4)C(=O)[C@@]3(Cc3ccccc3)[C@H]2C(=O)N1C1CCCCC1 | inconclusive: 3.16 µM [activator, single point] | –
48 | Cc1csc2nc3cc(C(N)=O)ccc3c(=O)n12 | inconclusive: 16.4 µM [activator, single point] | –
49 | Cc1ccsc1/C=N/NC(=O)c1ccc2c(c1)OCCO2 | inconclusive: 2.31 µM [activator, partial curve] | –
50 | CCOC(=O)CN1C(=O)N[C@H](c2ccc(Br)cc2)C(C(C)=O)=C1C | – | inactive: -5.88%
51 | CN(CC(=O)Nc1ccccc1C(=O)NC1CC1)Cc1ccco1 | inconclusive: 29.1 µM [activator, partial curve, poor fit] | –
52 | CCOC(=O)c1c(NC(=O)CSc2ncnc3ccccc23)sc(C(C)=O)c1C | active: 14.6 µM | –
53 | CCN1CCCC1CNC(=O)C1CCN(Cc2nc(-c3cccc(Br)c3)oc2C)CC1 (configuration not stated) | inconclusive: 23.1 µM [inhibitor, single point] | –
54 | CC(C)N1C(=O)/C(=C\c2nc3ccccc3c(=O)n2-c2ccccc2)c2ccccc21 | active: 13 µM | –
55 | Cc1nn(Cc2ccccc2)c(C)c1C(=O)N1CCN(CC(=O)Nc2ccccc2Cl)CC1 | inconclusive: 18.3 µM [inhibitor, partial curve, poor fit] | –
56 | CCOc1cc(N2CCOCC2)c(OCC)cc1NC(=O)C1=COCCO1 | – | inactive: -16.1%
57 | COc1ccc(N2CCN(C(=O)CC34CC5CC(CC(C5)C3)C4)CC2)c([N+](=O)[O-])c1 | inconclusive: 29.1 µM [inhibitor, single point] | –
58 | Nc1ccc2oc3ncccc3c(=O)c2c1 | inconclusive: 7.31 µM [activator, partial curve, poor fit] | –
59 | Cc1sc(NC(=O)CN(Cc2ccccc2)C(=O)C2CC2)c(C(N)=O)c1C | inconclusive: 20.6 µM [inhibitor, partial curve] | –
60 | COc1cc(C2C(C#N)=C(N)N(N(C)C)C3=C2C(=O)CC(C)(C)C3)ccc1O (configuration not stated) | – | inactive: 20.2%
61 | CCC1CC2(C)NC(=O)c3c(sc4c3CC(C)(C)OC4)N2C1=O (configuration not stated) | inconclusive: 32.6 µM [inhibitor, partial curve, poor fit] | –
62 | CCN1CCN(c2nc3c(c(=O)[nH]c(=O)n3C)n2Cc2ccccc2F)CC1 | – | inactive: -2.12%
63 | CCCCCNC(=O)C(C#N)c1nc2ccccc2nc1N1CCCC1 (configuration not stated) | – | inactive: 13.7%
64 | Cc1nc2c(-c3ccc(F)cc3)c(C)nn2c(C)c1CCC(=O)Nc1ccccc1F | inconclusive: 7.3 µM [inhibitor, partial curve, poor fit] | –
65 | CC(=O)c1sc(NC(=O)c2cccs2)nc1C | inconclusive: 23.1 µM [activator, partial curve] | –
66 | COn1c2c(c3c4no[n+]([O-])c4ccc31)CCCC2 | – | inactive: 5.84%
67 | CC1CCCC(NC(=O)CN2C(=O)NC(c3ccccc3)(c3ccccc3)C2=O)C1C (configuration not stated) | inconclusive: 0.651 µM [activator, partial curve, poor fit] | –

Record cards (already shown). Values in the order: Potency | activity change, negative = inhibition
`CCN1CCN(c2nc3c(c(=O)[nH]c(=O)n3C)n2Cc2ccccc2F)CC1` is entered as – | inactive: -2.12%
`CCC1CC2(C)NC(=O)c3c(sc4c3CC(C)(C)OC4)N2C1=O` (configuration not stated) is entered as inconclusive: 32.6 µM [inhibitor, partial curve, poor fit] | –
`CC(C)N1C(=O)/C(=C\c2nc3ccccc3c(=O)n2-c2ccccc2)c2ccccc21` is entered as active: 13 µM | –
`Cc1nn(Cc2ccccc2)c(C)c1C(=O)N1CCN(CC(=O)Nc2ccccc2Cl)CC1` is entered as inconclusive: 18.3 µM [inhibitor, partial curve, poor fit] | –
